Experimental findings from the supplement of paper PMC10735217 are described below.

Some of the results follow. Repeats in this data set agree poorly, so a single value says little.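 In a drug-repurposing library screen, luminescence reads luciferase driven by eight TEAD-binding elements, stably integrated into human kidney-derived cells. Compounds scoring over five robust Z scores above the plate mean are called hits.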

The test system of this test is HEK293A TEAD-LUC reporter. Description: TEAD-luciferase reporter activity (YAP activation), robust Z score vs plate; higher = stronger YAP/TEAD activation. The conditions noted are these: 24 h.

With `COc1ccc(OC)c(Cc2cnc3nc(N)nc(N)c3c2C)c1`, the TEAD-luciferase reporter activity is inactive: -0.731 (compound concentration: 200 nM), inactive: -0.418 (compound concentration: 2 uM) and inactive: -1.78 (compound concentration: 10 uM).
On the same counts, the results for `C#CCOc1ccc2c(c1)c(-c1ccc(C(C)C)cc1)nc(=O)n2Cc1ccc(OC)c(OCC)c1` are inactive: -1.41, inactive: -1.83 and inactive: 1.76.
In the same order, the values of `Cc1ccc2[nH]c3c(c2c1)CCC(NC(=O)Cc1ccc(F)cc1)C3` (stereo unspecified) are inactive: -0.811, inactive: 1.44 and inactive: -2.39.
With `COc1ccc2c(c1)N(C(=O)OC(C)C)[C@@H](CSC)C(=O)N2`, the TEAD-luciferase reporter activity by setting is: (compound concentration: 200 nM) inactive: 0.00241; (compound concentration: 2 uM) inactive: -0.145; (compound concentration: 10 uM) inactive: 0.839.
As for `C[C@H]1c2cccc(O)c2C(=O)C2=C(O)[C@]3(O)C(=O)C(C(N)=O)=C(O)[C@@H](N(C)C)[C@@H]3[C@@H](O)[C@@H]21` [doxycycline hyclate], the TEAD-luciferase reporter activity (compound concentration: 2 uM) is inactive: -0.603.
Turning to `C[C@H]1c2cccc(O)c2C(=O)C2=C(O)[C@]3(O)C(=O)C(C(N)=O)=C(O)[C@@H](N(C)C)[C@@H]3[C@@H](O)[C@@H]21` [doxycycline], the TEAD-luciferase reporter activity reads like this: (compound concentration: 200 nM) inactive: 0.463; (compound concentration: 10 uM) inactive: 2.62.
As for `CCC[C@@H](N(NC(=O)c1cccc(OC)c1CC)C(=O)c1cc(C)cc(C)c1)C(C)(C)C` [Veledimex], the TEAD-luciferase reporter activity (compound concentration: 200 nM) is inactive: -1.12, the TEAD-luciferase reporter activity (compound concentration: 2 uM) was inactive: -0.184 and the TEAD-luciferase reporter activity (compound concentration: 10 uM) was inactive: -0.222.
On the same counts, the results for `CC(C)CC(NC(=O)CNC(=O)C(CCC(N)=O)NC(=O)C(CC(C)C)NC(=O)C(CC(C)C)NC(=O)C(CCCNC(=N)N)NC(=O)C(CCC(N)=O)NC(=O)C(CC(C)C)NC(=O)C(CCCNC(=N)N)NC(=O)C(C)NC(=O)C(CO)NC(=O)C(CC(=O)O)NC(=O)C(CCCNC(=N)N)NC(=O)C(CC(C)C)NC(=O)C(CCCNC(=N)N)NC(=O)C(CO)NC(=O)C(CC(C)C)NC(=O)C(CCC(=O)O)NC(=O)C(CO)NC(=O)C(NC(=O)C(Cc1ccccc1)NC(=O)C(NC(=O)CNC(=O)C(CC(=O)O)NC(=O)C(CO)NC(=O)C(N)Cc1ncc[nH]1)C(C)O)C(C)O)C(=O)NC(C(=O)O)C(C)C` (stereo unspecified) [Secretin human] are inactive: -2.49, inactive: -1.28 and inactive: -1.72.
In the same order, the values of `CC(C)CC(NC(=O)CNC(=O)C(CCC(N)=O)NC(=O)C(CC(C)C)NC(=O)C(CC(C)C)NC(=O)C(CCCNC(=N)N)NC(=O)C(CCC(N)=O)NC(=O)C(CC(C)C)NC(=O)C(CCCNC(=N)N)NC(=O)C(C)NC(=O)C(CO)NC(=O)C(CC(=O)O)NC(=O)C(CCCNC(=N)N)NC(=O)C(CC(C)C)NC(=O)C(CCCNC(=N)N)NC(=O)C(CO)NC(=O)C(CC(C)C)NC(=O)C(CCC(=O)O)NC(=O)C(CO)NC(=O)C(NC(=O)C(Cc1ccccc1)NC(=O)C(NC(=O)CNC(=O)C(CC(=O)O)NC(=O)C(CO)NC(=O)C(N)Cc1ncc[nH]1)C(C)O)C(C)O)C(=O)NC(C(=O)O)C(C)C` (stereo unspecified) [Secretin] are inactive: -0.975, inactive: 0.253 and inactive: -0.0809.
As to `CN(Cc1ccc(-c2ccccc2)cc1)CC1CCCCC1`, the TEAD-luciferase reporter activity by setting is: (compound concentration: 200 nM) inactive: -1.95; (compound concentration: 10 uM) inactive: 4.01.
Regarding `CCC[C@@]1(CC(=O)O)OCCc2c1[nH]c1c(C)ccc(C#N)c21`, the TEAD-luciferase reporter activity by setting is: (compound concentration: 200 nM) inactive: 1.06; (compound concentration: 2 uM) inactive: -0.0167; (compound concentration: 10 uM) inactive: 0.157.
In the same order, the values of `CCC(CC)C(c1ccc(Nc2nc3ccccc3s2)cc1)n1cncn1` (stereo unspecified) [Talarozole] are active: 7.13, inactive: 1.82 and active: 6.78.
On the same counts, the results for `Cc1[nH]c(NC(=O)c2cc(CNC(=O)C(C)C)cnc2C(F)F)nc1-c1ccc(C(F)(F)F)cc1` are inactive: -1.59, inactive: -1.13 and inactive: 3.31.
Consider `O=c1c(-n2ccnn2)c[nH]n1-c1cc(N2CCOCC2)ncn1` [molidustat], for which the TEAD-luciferase reporter activity is, setting by setting: (compound concentration: 200 nM) inactive: 1.14; (compound concentration: 2 uM) inactive: 0.648; (compound concentration: 10 uM) inactive: 2.85.
On the same counts, the results for `CC1(C)C=C(c2ccccn2)c2cc(C#N)ccc2O1` are inactive: 2.31, inactive: -1.54 and inactive: -1.27.
For the compound `CC1(C)C(/C=C/C=C/C=C/C=C2/N(CCCCS(=O)(=O)[O-])c3ccc4ccccc4c3C2(C)C)=[N+](CCCCS(=O)(=O)[O-])c2ccc3ccccc3c21` [indocyanin green, Daiichi], the TEAD-luciferase reporter activity is inactive: 0.421 (compound concentration: 200 nM) and inactive: 0.536 (compound concentration: 10 uM).
As for `CC1(C)C(/C=C/C=C/C=C/C=C2/N(CCCCS(=O)(=O)[O-])c3ccc4ccccc4c3C2(C)C)=[N+](CCCCS(=O)(=O)[O-])c2ccc3ccccc3c21` [indocyanin green], the TEAD-luciferase reporter activity (compound concentration: 2 uM) is inactive: 1.61.
On to `O=C(C1CC1)N1CCCN(c2nc3ncccc3o2)CC1`, for which the TEAD-luciferase reporter activity by setting is: (compound concentration: 200 nM) inactive: -2.37; (compound concentration: 10 uM) inactive: -0.18.
With `CC(C)(N)c1ccc(-c2nc(Nc3ccc(CCN4CCOCC4)cc3)ncc2C#N)cc1`, the TEAD-luciferase reporter activity reads like this: (compound concentration: 200 nM) inactive: -0.0341; (compound concentration: 2 uM) inactive: -1.32; (compound concentration: 10 uM) inactive: -0.567.
In the same order, the values of `CC(C)Oc1ccc(C(=O)NS(=O)(=O)c2ccc(N)cc2)cc1` are inactive: -0.412, inactive: -2.19 and inactive: -0.721.
For `CCc1c(C)[nH]c2c1C(=O)C(CN(C)C)CC2` (stereo unspecified), the TEAD-luciferase reporter activity was inactive: -1.69 (compound concentration: 200 nM), inactive: -0.656 (compound concentration: 2 uM) and inactive: 1.09 (compound concentration: 10 uM).
On the same counts, the results for `CN(CCC(Oc1ccc(-c2ccccc2)cc1)c1ccc(F)cc1)CC(=O)O` (stereo unspecified) are inactive: -0.123, inactive: -1.79 and inactive: -1.58.
In the same order, the values of `CC(C)=CCC/C(C)=C/CC/C(C)=C/CCC1(C)CCc2cc(O)ccc2O1` (stereo unspecified) [Tocotrienol] are inactive: 0.157, inactive: -0.607 and inactive: 1.18.
